The values that follow come from PubChem BioAssay AID256 (DTP/NCI, 2004).

The list does not hold the whole screen: it is rich in T/C values a quarter to a half above the control, in often repeated tests (any T/C) and in doses without a T/C. Other doses and runs of a compound stand elsewhere. T/C: endpoint of the treated group in % of that of the vehicle group. Some doses have a count of surviving animals in place of a T/C: the source files T/C as zero there, which appears to mark a toxic dose or a test without result, not a measured value. Some doses without a T/C left all or most animals alive at the check, yet need not have been tolerated: survival well below the control is almost never listed, so the zero probably covers shortened survival too. Counts of survivors are from the toxicity check (mostly the fifth day) where no day follows; animals may have died later. Schedule codes are those of the source, read here as Q, the interval in days (D) or hours (H), X, the number of doses. Some entries were tested several times; the results are listed from low to high. For survival time, this PubChem deposit counts one and a half times the control or more as active, and values a quarter to a half above the control carry no call in these data; other NCI protocols may use other cut-offs. Signs of the kind (2×) say how often a value occurs here. Some T/C values carry the count of animals alive at the toxicity check (mostly the fifth day); where none is given, no animal had died by that day.

The test system of this experiment is CD2F1 mice, L1210 leukemia ip, survival T/C. Kind of experiment: NCI In Vivo Anticancer Drug Screen. Data for tumor model L1210 Leukemia (intraperitoneal) in CD2F1 (CDF1) mice. Particulars: higher T/C = longer survival. As to the method:
The antitumor activity of compounds was measured in mice bearing transplantable tumors. Survival or tumor size were measured and the results are expressed as the measurement made in the treated group (T) divided by the measurement made in the vehicle treated control group (C). The tumor model used in this assay is L1210 Leukemia (intraperitoneal) in CD2F1 (CDF1) mice

[1] abbreviates: T/C endpoint: mean survival time, dose: 200.0 mg/kg/injection, schedule: Q04DX003 (ip), vehicle: saline with Tween-80.
The mark [2] stands for this setting: T/C endpoint: mean survival time, dose: 400.0 mg/kg/injection, schedule: Q04DX003 (ip), vehicle: saline with Tween-80.
Setting [3] is: T/C endpoint: mean survival time, dose: 1.0 mg/kg/injection, schedule: Q01DX009 (ip), vehicle: saline.
The mark [4] stands for this setting: T/C endpoint: mean survival time, dose: 100.0 mg/kg/injection, schedule: Q01DX009 (ip), vehicle: saline with Tween-80.
Setting [5] is: T/C endpoint: mean survival time, dose: 200.0 mg/kg/injection, schedule: Q04DX002 (ip), vehicle: saline with Tween-80.
Where [6] appears, read: T/C endpoint: mean survival time, dose: 400.0 mg/kg/injection, schedule: Q04DX002 (ip), vehicle: saline with Tween-80.
[7] abbreviates: T/C endpoint: mean survival time, dose: 4.0 mg/kg/injection, schedule: Q01DX001 (ip), vehicle: saline.

As for `CN1CCCN(C)C1c1ccccc1O`, the survivor count reads like this: (T/C endpoint: mean survival time, dose: 100.0 mg/kg/injection, schedule: Q04DX003 (ip), vehicle: saline with Tween-80) 4 of 6; under setting [1], 0 of 6; under setting [2], 0 of 6.
For the molecule `O=C1N[C@H]2[C@H](O)[C@H](O)[C@@H](O)[C@H](O)[C@@H]2c2cc3c(c(O)c21)OCO3`, the T/C runs as follows: (T/C endpoint: median survival time, dose: 1.56 mg/kg/injection, schedule: Q01DX009 (ip), vehicle: saline + alcohol) 131 % of control; (T/C endpoint: median survival time, dose: 3.0 mg/kg/injection, schedule: Q01DX009 (ip), vehicle: saline + alcohol) 133 % of control; (T/C endpoint: median survival time, dose: 3.12 mg/kg/injection, schedule: Q01DX009 (ip), vehicle: saline + alcohol) 131 % of control. Further, the survivor count reads like this: (T/C endpoint: median survival time, dose: 6.0 mg/kg/injection, schedule: Q01DX009 (ip), vehicle: saline + alcohol) 3 of 6; (T/C endpoint: median survival time, dose: 6.25 mg/kg/injection, schedule: Q01DX009 (ip), vehicle: saline + alcohol) 0 of 6; (T/C endpoint: median survival time, dose: 12.5 mg/kg/injection, schedule: Q01DX009 (ip), vehicle: saline + alcohol) 0 of 6; (T/C endpoint: median survival time, dose: 25.0 mg/kg/injection, schedule: Q01DX009 (ip), vehicle: saline + alcohol) 0 of 6.
With `O[C@H](CN1CC1)[C@@H](O)CN1CC1`, the T/C runs as follows: (T/C endpoint: mean survival time, dose: 0.13 mg/kg/injection, schedule: Q01DX009 (ip), vehicle: saline) 147 and 148 % of control; (T/C endpoint: mean survival time, dose: 0.25 mg/kg/injection, schedule: Q03DX003 (ip), vehicle: saline) 149 % of control; (T/C endpoint: mean survival time, dose: 0.25 mg/kg/injection, schedule: Q04DX003 (ip), vehicle: saline) 143 % of control; under setting [3], 130 % of control.
As for `Nc1n[n+](-c2ccccc2)no1`, the survivor count (T/C endpoint: mean survival time, dose: 50.0 mg/kg/injection, schedule: Q01DX009 (ip), vehicle: water) is reported as 6 of 6; the survivor count (T/C endpoint: mean survival time, dose: 100.0 mg/kg/injection, schedule: Q01DX009 (ip), vehicle: water) was 0 of 6 and 4 of 6.
On to `[N-]=[N+]=CC(=O)NCC(=O)NCCO`, for which the T/C is 128 and 129 % of control (T/C endpoint: mean survival time, dose: 400.0 mg/kg/injection, schedule: Q01DX009 (ip), vehicle: other); 135 % of control (T/C endpoint: mean survival time, dose: 600.0 mg/kg/injection, schedule: Q01DX009 (ip), vehicle: other); 135 and 136 % of control (T/C endpoint: mean survival time, dose: 800.0 mg/kg/injection, schedule: Q01DX009 (ip), vehicle: other).
Turning to `COC1=C(OC)C(=O)C(SCCCc2ccccc2)=CC1=O`, the survivor count is, setting by setting: (T/C endpoint: mean survival time, dose: 50.0 mg/kg/injection, schedule: Q01DX009 (ip), vehicle: saline with Tween-80) 0 of 3; under setting [4], 0 of 3; (T/C endpoint: mean survival time, dose: 200.0 mg/kg/injection, schedule: Q01DX009 (ip), vehicle: saline with Tween-80) 0 of 3.
As to `O=C(/C=C/c1ccccc1)NC(=S)NCc1ccccc1`, under setting [5], the T/C was 91, 93, 98, 103 % of control and the survivor count is reported as 6 of 6. Under setting [6], the T/C was 89, 90, 100 % of control (2×) and the survivor count is on record as 6 of 6.
On to `O=C(CBr)Nc1cc([N+](=O)[O-])ccc1O`, for which, for the setting “T/C endpoint: mean survival time, dose: 25.0 mg/kg/injection, schedule: Q01DX009 (ip), vehicle: saline with Tween-80”, the survivor count is recorded as 2 of 3.
On to `CS(=O)(=O)OCCN(CCOS(C)(=O)=O)c1ccc(N=O)cc1`, for which the T/C (T/C endpoint: mean survival time, dose: 0.06 mg/kg/injection, schedule: Q03HX008 (ip), vehicle: saline) is 139 % of control; the T/C (T/C endpoint: mean survival time, dose: 0.13 mg/kg/injection, schedule: Q03HX008 (ip), vehicle: saline) is 133 % of control; the T/C (T/C endpoint: mean survival time, dose: 0.25 mg/kg/injection, schedule: Q01DX005 (ip), vehicle: saline) was 134 % of control; the T/C (T/C endpoint: mean survival time, dose: 0.25 mg/kg/injection, schedule: Q03HX008 (ip), vehicle: saline) was 126 % of control; the T/C (T/C endpoint: mean survival time, dose: 0.5 mg/kg/injection, schedule: Q01DX001 (ip), vehicle: saline) is 142 % of control; the T/C (T/C endpoint: mean survival time, dose: 0.5 mg/kg/injection, schedule: Q03HX008 (ip), vehicle: saline) was 136 % of control. The T/C reads like this: (T/C endpoint: mean survival time, dose: 0.5 mg/kg/injection, schedule: Q04DX003 (ip), vehicle: saline) 131 % of control; (T/C endpoint: mean survival time, dose: 1.0 mg/kg/injection, schedule: Q01DX001 (ip), vehicle: saline) 132 and 133 % of control; under setting [3], 131 % of control; (T/C endpoint: mean survival time, dose: 2.0 mg/kg/injection, schedule: Q01DX001 (ip), vehicle: saline) 131 % of control; under setting [7], 145 % of control; (T/C endpoint: mean survival time, dose: 3.8 micrograms/kg/injection, schedule: Q03HX024 (ip), vehicle: saline) 125 % of control [9 of 10 alive]. Further, the T/C (T/C endpoint: mean survival time, dose: 16.3 micrograms/kg/injection, schedule: Q03HX024 (ip), vehicle: saline) was 143 % of control. The survivor count is recorded as 0 of 10 (T/C endpoint: mean survival time, dose: 1.0 mg/kg/injection, schedule: Q03HX008 (ip), vehicle: saline); 3 of 10 (T/C endpoint: mean survival time, dose: 2.0 mg/kg/injection, schedule: Q01DX005 (ip), vehicle: saline); 1 of 10 (T/C endpoint: mean survival time, dose: 2.0 mg/kg/injection, schedule: Q01DX009 (ip), vehicle: saline); 2 of 10 under setting [7]; 0 of 10 (T/C endpoint: mean survival time, dose: 4.0 mg/kg/injection, schedule: Q01DX005 (ip), vehicle: saline); 1 of 10 (T/C endpoint: mean survival time, dose: 4.0 mg/kg/injection, schedule: Q01DX009 (ip), vehicle: saline). In addition, the survivor count runs as follows: (T/C endpoint: mean survival time, dose: 4.0 mg/kg/injection, schedule: Q04DX003 (ip), vehicle: saline) 4 of 10; (T/C endpoint: mean survival time, dose: 8.0 mg/kg/injection, schedule: Q01DX001 (ip), vehicle: saline) 0 of 10; (T/C endpoint: mean survival time, dose: 8.0 mg/kg/injection, schedule: Q04DX003 (ip), vehicle: saline) 0 of 10; (T/C endpoint: mean survival time, dose: 62.5 micrograms/kg/injection, schedule: Q03HX024 (ip), vehicle: saline) 3 of 10.
Turning to `N#CC1CC=CCC1` (centres undefined), the survivor count was 6 of 6 (T/C endpoint: mean survival time, dose: 50.0 mg/kg/injection, schedule: Q04DX003 (ip), vehicle: saline); 3 of 6 (T/C endpoint: mean survival time, dose: 100.0 mg/kg/injection, schedule: Q04DX003 (ip), vehicle: saline); 0 of 6 (T/C endpoint: mean survival time, dose: 200.0 mg/kg/injection, schedule: Q04DX003 (ip), vehicle: saline).
Take `Cc1ccc(C(=O)c2ccc([N+](=O)[O-])cc2)cc1`: the survivor count under setting [2] is 1 of 3.
As for `CN(C)C(=S)Oc1c([N+](=O)[O-])cc([N+](=O)[O-])cc1C(C)(C)C`, the survivor count by setting is: under setting [5], 0 of 3; under setting [6], 0 of 3.
In the case of `ClC1=C(Cl)C2(Cl)C=CC1(Cl)C2(Cl)Cl`, the survivor count by setting is: under setting [4], 6 of 6; under setting [1], 2 of 6; under setting [2], 1 of 6.
With `CCOC(=O)C1=C(Nc2ccc(OC)cc2)C(N)=NC1=N`, the T/C was 128 % of control (T/C endpoint: median survival time, dose: 100.0 mg/kg/injection, schedule: Q01DX005 (ip), vehicle: saline); 128 % of control (T/C endpoint: median survival time, dose: 100.0 mg/kg/injection, schedule: Q01DX005 (ip), vehicle: suspension in saline); 134 % of control (T/C endpoint: median survival time, dose: 277.78 mg/kg/injection, schedule: Q01DX005 (ip), vehicle: saline). The survivor count (T/C endpoint: median survival time, dose: 200.0 mg/kg/injection, schedule: Q01DX005 (ip), vehicle: suspension in saline) is 3 of 6 and the survivor count (T/C endpoint: median survival time, dose: 277.7 mg/kg/injection, schedule: Q01DX005 (ip), vehicle: saline) is reported as 5 of 6.
